Data published in patent US7129072.
No constants are given. Whether binding was seen depends on the method and setting. Some entries that bind do so weakly or less than the wild type.

Chains of the proteins cited; added tags and fusions are not shown. Lines headed by an entry give the natural chain unless they say otherwise; changes in a name come on top. Residues count along the entry.
UniProt P11362: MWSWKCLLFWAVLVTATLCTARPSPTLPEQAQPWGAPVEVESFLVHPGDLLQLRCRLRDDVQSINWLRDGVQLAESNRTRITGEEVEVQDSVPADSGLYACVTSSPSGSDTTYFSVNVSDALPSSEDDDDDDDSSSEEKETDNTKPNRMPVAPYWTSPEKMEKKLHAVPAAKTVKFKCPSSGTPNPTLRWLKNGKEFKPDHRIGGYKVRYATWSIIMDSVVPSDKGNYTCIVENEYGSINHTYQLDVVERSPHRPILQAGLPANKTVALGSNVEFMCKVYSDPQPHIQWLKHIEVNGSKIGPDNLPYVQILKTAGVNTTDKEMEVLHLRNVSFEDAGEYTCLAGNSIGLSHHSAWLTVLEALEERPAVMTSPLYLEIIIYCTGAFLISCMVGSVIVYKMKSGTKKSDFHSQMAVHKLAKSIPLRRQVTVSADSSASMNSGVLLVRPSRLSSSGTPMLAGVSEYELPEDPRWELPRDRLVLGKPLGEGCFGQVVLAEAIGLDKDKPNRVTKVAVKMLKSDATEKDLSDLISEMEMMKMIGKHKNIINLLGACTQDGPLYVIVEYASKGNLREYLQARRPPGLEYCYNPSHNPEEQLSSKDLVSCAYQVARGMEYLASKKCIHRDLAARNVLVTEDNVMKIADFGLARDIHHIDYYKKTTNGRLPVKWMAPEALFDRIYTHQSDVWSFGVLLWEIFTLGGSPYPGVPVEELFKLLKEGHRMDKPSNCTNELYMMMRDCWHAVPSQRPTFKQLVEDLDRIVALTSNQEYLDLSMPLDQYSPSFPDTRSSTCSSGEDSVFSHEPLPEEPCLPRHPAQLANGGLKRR
UniProt P09038, residues 143-288: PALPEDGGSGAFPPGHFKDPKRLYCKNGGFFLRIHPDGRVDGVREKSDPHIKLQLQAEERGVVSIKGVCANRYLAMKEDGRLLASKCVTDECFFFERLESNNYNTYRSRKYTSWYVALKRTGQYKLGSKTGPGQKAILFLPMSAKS

Assays:
[1] = target: FGFR1 D2-D3 (residues 142-365 of human FGFR1) (human) (UniProt P11362); assay: X-ray crystal structure, title of the coordinate table (Table 6)
[2] = target: FGFR1 D2-D3 (residues 142-365 of human FGFR1) (human) (UniProt P11362); assay: X-ray crystal structure, figure legend (FIG. 1)
[3] = target: FGFR1 D2-D3 (residues 142-365 of human FGFR1) (human) (UniProt P11362); assay: X-ray crystal structure, title of the coordinate table (Table 1)
[4] = target: FGFR1 D2-D3 (residues 142-365 of human FGFR1) (human) (UniProt P11362); assay: refolded D2-D3 captured on heparin sepharose with immobilised FGF2; complex then purified by size exclusion chromatography
[5] = target: FGFR1 D2-D3 (residues 142-365 of human FGFR1) (human) (UniProt P11362); assay: X-ray crystal structure at 3.0 Å of FGF2-FGFR1 crystals soaked with heparin decasaccharide
[6] = target: FGFR1 D2-D3 (residues 142-365 of human FGFR1) (human) (UniProt P11362); assay: X-ray crystal structure of FGFR1 D2-D3/FGF2
[7] = target: FGFR1 D2-D3 (residues 142-365 of human FGFR1) (human) (UniProt P11362); assay: X-ray crystal structure of the dimer of FGFR1 D2-D3/FGF2 complexes

Measured: binding

FGF2 (basic FGF) (from UniProt P09038 143-288) (ligand)
not listed: [7]
binds: all other assays above

FGFR1 D2-D3 (residues 142-365 of human FGFR1) (from UniProt P11362 149-359) (receptor)
binds: [7]
